Measured values from publication PMC3893189.
Results are given in words; binding and its absence hold for the method and conditions named. Some binding calls cover weakened binding; strength is not graded here. Sequences can lack the tags named with a protein.

Molecular target: PprA, bacterial two-hybrid fusions (pUTpprA and pKNTpprA) (Deinococcus radiodurans) (UniProt O32504)
Experiment: two-hybrid; bacterial two-hybrid (pUT18 and pKNT25 fusions) in E. coli BTH101; colonies on LB with X-gal and IPTG at 30°C overnight; β-galactosidase activity with ONPG

binding: binds
B1: PprA, bacterial two-hybrid fusions (pUTpprA and pKNTpprA) (protein, UniProt O32504 1-300)
chain: MLPLAFLICSGHNKGSMARAKAKDQTDGIYAAFDTLMSTAGVDSQIAALAASEADAGTLDAALTQSLQEAQGRWGLGLHHLRHEARLTDDGDIEILTDGRPSARVSEGFGALAQAYAPMQALDERGLSQWAALGEGYRAPGDLPLAQLKVLIEHARDFETDWSAGRGETFQRVWRKGDTLFVEVARPASAEAALSDAAWDVIASIKDRAFQRELMRRSEKDGMLGALLGARHAGAKANLAQLPEAHFTVQAFVQTLSGAAARNAEEYRAALKTAAAALEEYQGVTTRQLSEVLRHGLRES
